Data as given in PubChem BioAssay AID1259298 (Sanger Institute, 2017)
This is an unselected part of 794 reagents tested. 20 of all reagents (2.5%) were called active. 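Calls rest only on the knock-down-alone score; drug synergy scores played no part in them.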 A number with no mark means an inactive call. Further read-outs or replicates are left out here. The record does not give: the amount of reagent, the time to read-out.

Aim: 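Kinase knock-downs that cut colorectal cancer cell viability or act with targeted drugs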 (primary screen)
Cell system: HT55 human colorectal cancer cell line
Reagent: siRNA pool against human genes
Conditions: anchor drug BYL719 1 µM, cetuximab 5 µg/ml or trametinib 10 nM, or DMSO vehicle alone
Measurement: 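Replicate-averaged viability versus wells of non-targeting pool; knock-down-only robust z-score; per-drug synergy score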
Reading the numbers: robust z-score, knock-down alone: higher = more cells remaining; low means essential gene
Active means: 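a gene counts as essential if its knock-down-alone robust z-score falls under -3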
Meaning of the calls: active = essential (knock-down alone); inactive = no change alone

Silencing of DGKH resulted in: robust z-score, knock-down alone 0.58. Silencing of STK16 came out at: robust z-score, knock-down alone 0.58. For MAP3K19, the entry reads robust z-score, knock-down alone -1.28. Against MAPK14 the deposit lists robust z-score, knock-down alone 0.521. Depletion of CDKL2 gave: robust z-score, knock-down alone -0.501. Against CKS1B, the entry reads robust z-score, knock-down alone 0.58.

2 of these entries, reformatted:
target gene,"robust z-score, knock-down alone"
MAPK14,0.521
CDKL2,-0.501

Next entries follow:
PCK2 showed robust z-score, knock-down alone 0.58. For KCNH2, the entry reads robust z-score, knock-down alone -1.18. RTN4 showed robust z-score, knock-down alone 0.58. ERN2 scored robust z-score, knock-down alone 0.58. PRKAB1 showed robust z-score, knock-down alone -0.485. CHEK2 scored robust z-score, knock-down alone 0.278.
